The test deals with SBP-FGFR1 (wild type fibroblast growth factor receptor 1 tagged N-terminally with streptavidin binding peptide) (UniProt P11362). The test is described as follows: affinity purification with mass spectrometry; serum-starved (4 h) U2OS-SBP-R1 and U2OS-SBP-R1.GF cells lysed in 50 mM Tris, 150 mM NaCl, 1 mM EDTA, 0.1% Nonidet P-40, pH 8.0; streptavidin-agarose overnight at 4 °C; label-free quantitative comparative MS; U2OS-R1 (untagged FGFR1) as control.

Amino acid sequences for entries named in this document (tags omitted). Residues count along the entry.
UniProt P11362, residues 22-822: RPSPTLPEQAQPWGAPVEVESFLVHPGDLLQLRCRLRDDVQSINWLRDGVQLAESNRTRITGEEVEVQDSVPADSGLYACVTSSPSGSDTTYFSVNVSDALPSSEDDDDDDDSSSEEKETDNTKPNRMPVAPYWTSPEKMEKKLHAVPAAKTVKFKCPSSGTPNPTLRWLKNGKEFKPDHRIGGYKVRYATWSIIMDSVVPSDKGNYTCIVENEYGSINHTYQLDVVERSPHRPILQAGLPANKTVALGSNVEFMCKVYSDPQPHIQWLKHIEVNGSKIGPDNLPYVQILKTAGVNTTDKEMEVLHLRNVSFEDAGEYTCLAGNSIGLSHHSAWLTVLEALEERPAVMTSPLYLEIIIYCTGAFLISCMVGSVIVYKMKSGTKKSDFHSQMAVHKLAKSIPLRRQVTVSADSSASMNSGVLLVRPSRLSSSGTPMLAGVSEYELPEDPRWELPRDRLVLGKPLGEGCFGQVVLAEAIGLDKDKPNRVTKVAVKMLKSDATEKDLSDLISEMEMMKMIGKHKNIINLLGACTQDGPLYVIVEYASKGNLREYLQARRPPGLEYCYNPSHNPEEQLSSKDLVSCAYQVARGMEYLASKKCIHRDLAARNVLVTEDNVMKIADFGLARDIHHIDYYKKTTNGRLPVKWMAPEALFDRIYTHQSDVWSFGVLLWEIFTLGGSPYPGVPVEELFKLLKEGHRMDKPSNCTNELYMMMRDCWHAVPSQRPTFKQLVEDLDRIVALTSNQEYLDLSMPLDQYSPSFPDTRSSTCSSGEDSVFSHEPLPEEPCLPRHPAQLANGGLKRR
UniProt P22455, residues 22-802: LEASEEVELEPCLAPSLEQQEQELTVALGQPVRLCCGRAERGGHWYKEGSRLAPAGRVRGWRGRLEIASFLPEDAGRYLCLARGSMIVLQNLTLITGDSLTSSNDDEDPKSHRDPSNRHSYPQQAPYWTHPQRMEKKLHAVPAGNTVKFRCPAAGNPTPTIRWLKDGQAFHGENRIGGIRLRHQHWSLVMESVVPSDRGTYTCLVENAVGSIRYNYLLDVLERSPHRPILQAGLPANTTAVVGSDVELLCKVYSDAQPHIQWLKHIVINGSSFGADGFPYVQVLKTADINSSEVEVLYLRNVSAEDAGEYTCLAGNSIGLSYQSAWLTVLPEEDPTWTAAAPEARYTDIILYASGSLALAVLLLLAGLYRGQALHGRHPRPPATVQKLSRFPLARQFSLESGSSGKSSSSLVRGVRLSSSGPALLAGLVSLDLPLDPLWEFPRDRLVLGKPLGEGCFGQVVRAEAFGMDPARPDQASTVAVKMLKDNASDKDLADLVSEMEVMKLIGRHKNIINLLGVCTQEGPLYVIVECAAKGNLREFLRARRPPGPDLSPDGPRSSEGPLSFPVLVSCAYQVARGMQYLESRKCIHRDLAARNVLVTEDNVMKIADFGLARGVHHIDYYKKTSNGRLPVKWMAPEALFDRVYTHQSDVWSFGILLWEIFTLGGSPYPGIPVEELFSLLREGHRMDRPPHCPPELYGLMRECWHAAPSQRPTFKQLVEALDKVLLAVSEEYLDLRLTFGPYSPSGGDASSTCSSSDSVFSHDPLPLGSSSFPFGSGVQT

Results are given in words; binding and its absence hold for the method and conditions named. Binding seen in cells or lysates may run through a third protein. These calls come from enrichment with a bait or labelling near it, and not all partners need be listed.

Consider “endogenous FGFR4 (from UniProt P22455 22-802) (receptor)”, for which the binding entry is reported as “binds”.

B1: endogenous glypican-1 (protein, UniProt P35052 24-530)
chain: DPASKSRSCGEVRQIYGAKGFSLSDVPQAEISGEHLRICPQGYTCCTSEMEENLANRSHAELETALRDSSRVLQAMLATQLRSFDDHFQHLLNDSERTLQATFPGAFGELYTQNARAFRDLYSELRLYYRGANLHLEETLAEFWARLLERLFKQLHPQLLLPDDYLDCLGKQAEALRPFGEAPRELRLRATRAFVAARSFVQGLGVASDVVRKVAQVPLGPECSRAVMKLVYCAHCLGVPGARPCPDYCRNVLKGCLANQADLDAEWRNLLDSMVLITDKFWGTSGVESVIGSVHTWLAEAINALQDNRDTLTAKVIQGCGNPKVNPQGPGPEEKRRRGKLAPRERPPSGTLEKLVSEAKAQLRDVQDFWISLPGTLCSEKMALSTASDDRCWNGMARGRYLPEVMGDGLANQINNPEVEVDITKPDMTIRQQIMQLKIMTNRLRSAYNGNDVDFQDASDDGSGSGSGDGCLDDLCSRKVSRKSSSSRTPLTHALPGLSEQEGQKTS
With B1, the binding result was “binds”.
